{
  "source": "the supplement of paper PMC3334620",
  "note": "In all, about 33,000 sequences were measured (“E-score (-0.5 to 0.5)”: median about -0.015, highest 2% from about 0.3 on). The list shows a part of the results.",
  "data": [
    {"biological_target": "T1, Abf1 (UniProt P14164)", "T1 sequence": "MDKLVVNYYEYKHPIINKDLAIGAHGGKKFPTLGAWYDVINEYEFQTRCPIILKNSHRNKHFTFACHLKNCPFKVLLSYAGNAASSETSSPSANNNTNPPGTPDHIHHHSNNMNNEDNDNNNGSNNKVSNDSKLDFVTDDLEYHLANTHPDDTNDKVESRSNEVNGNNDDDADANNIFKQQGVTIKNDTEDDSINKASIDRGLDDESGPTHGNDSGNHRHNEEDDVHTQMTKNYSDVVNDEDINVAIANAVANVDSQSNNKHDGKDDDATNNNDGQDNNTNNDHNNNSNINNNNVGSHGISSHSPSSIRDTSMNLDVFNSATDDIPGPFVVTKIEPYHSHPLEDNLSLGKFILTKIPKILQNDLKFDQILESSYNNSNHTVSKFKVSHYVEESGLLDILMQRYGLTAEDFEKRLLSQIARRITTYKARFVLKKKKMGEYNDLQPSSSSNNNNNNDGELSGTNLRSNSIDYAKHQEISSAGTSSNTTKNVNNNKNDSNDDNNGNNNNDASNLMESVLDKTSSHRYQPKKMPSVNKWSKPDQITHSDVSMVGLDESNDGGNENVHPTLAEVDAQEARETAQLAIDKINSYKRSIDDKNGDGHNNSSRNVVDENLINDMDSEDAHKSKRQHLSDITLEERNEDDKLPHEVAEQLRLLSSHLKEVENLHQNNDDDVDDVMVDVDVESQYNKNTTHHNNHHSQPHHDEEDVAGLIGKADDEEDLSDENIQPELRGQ", "assay": "PBM E-score (8-mer binding enrichment) (E-score (-0.5 to 0.5)); higher = stronger / more preferred TF binding", "settings": "protein concentration: 200 nM; construct: GST-full length", "method_in_brief": "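E-scores (a modified Wilcoxon-Mann-Whitney statistic) were assigned by the Universal PBM Analysis Suite to every ungapped eight-base word pooled with its reverse complement. The input came from universal all-10-mer Agilent arrays made double-stranded by primer extension and probed with GST-tagged yeast transcription factors at about 100-200 nM. Fluorescent anti-GST detected bound protein, and masliner normalised the scans.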", "values": [
      {"sequence": "AGGGTCAT", "PBM E-score": -0.0478},
      {"sequence": "AGCGTACG", "PBM E-score": 0.0472},
      {"sequence": "ATTAATAG", "PBM E-score": 0.165},
      {"sequence": "AGTCGCAA", "PBM E-score": -0.0319},
      {"sequence": "CTCAAAGC", "PBM E-score": 0.0933},
      {"sequence": "AAGGCCCT", "PBM E-score": -0.131},
      {"sequence": "CCCACCAA", "PBM E-score": -0.122},
      {"sequence": "GAATGTGA", "PBM E-score": 0.0214},
      {"sequence": "CATTCGCA", "PBM E-score": -0.1},
      {"sequence": "TCACCTAA", "PBM E-score": 0.188},
      {"sequence": "AGTTGGAA", "PBM E-score": -0.17},
      {"sequence": "AATCGGTA", "PBM E-score": -0.0615},
      {"sequence": "AATCGCGT", "PBM E-score": -0.0726},
      {"sequence": "CTCCACTA", "PBM E-score": -0.0221},
      {"sequence": "ATCAGTTC", "PBM E-score": -0.0785},
      {"sequence": "AGATCCAG", "PBM E-score": -0.0713},
      {"sequence": "GAGAGCTC", "PBM E-score": -0.305},
      {"sequence": "ACTACGCG", "PBM E-score": 0.0102},
      {"sequence": "AGACCACA", "PBM E-score": -0.301},
      {"sequence": "CCGAATCG", "PBM E-score": -0.0548},
      {"sequence": "AGAAGAGC", "PBM E-score": -0.197},
      {"sequence": "GAACTGGC", "PBM E-score": -0.13},
      {"sequence": "AATTATGT", "PBM E-score": 0.168},
      {"sequence": "AAACGTCG", "PBM E-score": 0.00886},
      {"sequence": "CACCAGTA", "PBM E-score": -0.0692},
      {"sequence": "GCAGTGGC", "PBM E-score": -0.119},
      {"sequence": "AGAGACGA", "PBM E-score": 0.153},
      {"sequence": "CCGTGAGC", "PBM E-score": 0.123},
      {"sequence": "ACCGTTCC", "PBM E-score": 0.141},
      {"sequence": "ATAGGGGC", "PBM E-score": -0.271},
      {"sequence": "AAACATAT", "PBM E-score": 0.122},
      {"sequence": "CGATCGTC", "PBM E-score": 0.216},
      {"sequence": "CAGCGTAA", "PBM E-score": -0.00124},
      {"sequence": "CCACAGTC", "PBM E-score": -0.192},
      {"sequence": "TCAACCGA", "PBM E-score": 0.0347},
      {"sequence": "CAGTATGG", "PBM E-score": -0.158},
      {"sequence": "AAACTGGA", "PBM E-score": 0.00973},
      {"sequence": "CATTACAA", "PBM E-score": 0.043},
      {"sequence": "CGAAAAAC", "PBM E-score": 0.156},
      {"sequence": "GGATGCAA", "PBM E-score": -0.0772},
      {"sequence": "GTTGTGGA", "PBM E-score": -0.176},
      {"sequence": "AAGTGCCA", "PBM E-score": -0.105},
      {"sequence": "CGAGCATA", "PBM E-score": 0.0329},
      {"sequence": "GTAACTGA", "PBM E-score": -0.042},
      {"sequence": "CAAGGCTC", "PBM E-score": -0.13},
      {"sequence": "CCCGTCCC", "PBM E-score": -0.163},
      {"sequence": "AATCCCTG", "PBM E-score": -0.186},
      {"sequence": "GCAGGGTA", "PBM E-score": -0.0134},
      {"sequence": "TGGACACA", "PBM E-score": -0.0786},
      {"sequence": "ATGAGGTG", "PBM E-score": 0.139},
      {"sequence": "AAGCCAGT", "PBM E-score": -0.108},
      {"sequence": "AGTCGATG", "PBM E-score": 0.0166},
      {"sequence": "ACTGGAAC", "PBM E-score": -0.00138},
      {"sequence": "TTTATAAA", "PBM E-score": 0.29},
      {"sequence": "ATCGCTCG", "PBM E-score": 0.204},
      {"sequence": "ACTACACT", "PBM E-score": 0.0328},
      {"sequence": "ACGATAAC", "PBM E-score": 0.224},
      {"sequence": "GAGGCAAA", "PBM E-score": -0.0198},
      {"sequence": "AAGACGAG", "PBM E-score": -0.0454},
      {"sequence": "CGATGATC", "PBM E-score": 0.287},
      {"sequence": "ATGTCACG", "PBM E-score": 0.437},
      {"sequence": "AGGGAGGC", "PBM E-score": -0.333},
      {"sequence": "ACTCGCGG", "PBM E-score": 0.0316},
      {"sequence": "GTGGCCAC", "PBM E-score": 0.15},
      {"sequence": "AGCGTTGA", "PBM E-score": 0.104},
      {"sequence": "GACGGTGC", "PBM E-score": 0.102},
      {"sequence": "GAGGTTGA", "PBM E-score": -0.042},
      {"sequence": "CGGTTAAA", "PBM E-score": -0.113},
      {"sequence": "ACTGCATC", "PBM E-score": 0.0268},
      {"sequence": "CCTAGCGA", "PBM E-score": 0.0769},
      {"sequence": "ATTATAAA", "PBM E-score": 0.0931},
      {"sequence": "AAGCCCCG", "PBM E-score": -0.3},
      {"sequence": "AATTTGAC", "PBM E-score": 0.183},
      {"sequence": "GACTCAGA", "PBM E-score": -0.145},
      {"sequence": "CAGACCAC", "PBM E-score": -0.239},
      {"sequence": "TACCGAGA", "PBM E-score": 0.00246},
      {"sequence": "GCAGAGAC", "PBM E-score": -0.219},
      {"sequence": "GAGTACGC", "PBM E-score": 0.128},
      {"sequence": "TTGAGCAA", "PBM E-score": -0.199},
      {"sequence": "AACCTTGG", "PBM E-score": -0.0513},
      {"sequence": "CGCATTAA", "PBM E-score": 0.137},
      {"sequence": "CCTCCTGC", "PBM E-score": -0.253},
      {"sequence": "ACCACCGA", "PBM E-score": -0.0146},
      {"sequence": "CGACAAAA", "PBM E-score": 0.241},
      {"sequence": "CTGGACAA", "PBM E-score": 0.0151},
      {"sequence": "CAACCCAG", "PBM E-score": -0.148}
    ]}
  ]
}
